Measurements reported in PubChem BioAssay AID1671195 (Yale University, 2021).
In all, the deposit lists about 22,000 reagents; shown is a random part of them. Of all reagents, about 1,510 (6.9%) are marked active. 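Active includes knockdowns raising or lowering LDL uptake; positive z-scores mean more uptake, negative mean less.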 Entries without a mark were called inactive. The numbers tell different reagents against one gene apart.

- Screen: 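Regulators of LDL receptor activity judged by labelled LDL uptake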 (primary screen)
- System: human Huh7 hepatoma cells
- Reagent: siRNA pool against human genes, 18 nM
- Time to read-out: about 2 to 2.5 days of knockdown, then 8 h LDL uptake
- Conditions: DiI-labelled LDL at 30 µg/ml for 8 h, in lipoprotein-deficient serum medium
- Read-out: 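Per-cell DiI-LDL intensity by automated imaging; well means scaled to the plate median and given as a robust z-score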
- Reading the numbers: robust z-score: higher = more LDL uptake after knockdown
- Hit rule: 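a gene counts as active if at least two replicate z-scores exceed ±2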

| robust z-score, replicate 1 | robust z-score, replicate 2 | robust z-score, replicate 3 | Gene | reagent |
| --- | --- | --- | --- | --- |
| 1.8 | -0.0661 | 0.18 | FANK1 (fibronectin type III and ankyrin repeat domains 1) | 1 |
| -0.29 | -1.09 | -0.269 | SPRY3 (sprouty RTK signaling antagonist 3) | 1 |
| 0.874 | 0.281 | 1.09 | DNAJC5B (DnaJ heat shock protein family (Hsp40) member C5 beta) | 1 |
| 0.647 | 0.44 | 0.506 | RILPL1 (Rab interacting lysosomal protein like 1) | 1 |
| -0.992 | -1.68 | -1.12 | PTPN14 (protein tyrosine phosphatase non-receptor type 14) | 1 |
| -0.0167 | 0.0129 | 0.541 | SOHLH2 | 1 |
| 0.725 | 0.409 | -0.178 | SEMG1 (semenogelin 1) | 1 |
| 0.397 | 0.639 | 0.854 | SF3A3 (splicing factor 3a subunit 3) | 1 |
| -0.153 | -0.545 | -0.397 | KRT40 (keratin 40) | 1 |
| -0.895 | -0.868 | -1.09 | TLE6 (TLE family member 6, subcortical maternal complex member) | 1 |
| -0.717 | -0.543 | -0.308 | SPTLC1 (serine palmitoyltransferase long chain base subunit 1) | 1 |
| -0.117 | -0.319 | -0.716 | GINS4 (GINS complex subunit 4) | 1 |
| 0.0995 | 1.74 | 1.03 | VPS26C (VPS26 endosomal protein sorting factor C) | 1 |
| 2.9 | 0.417 | 1.93 | CDY1 (chromodomain Y-linked 1) | 1 |
| -1.89 | -1.31 | -1.76 | FGF22 (fibroblast growth factor 22) | 1 |
| 0.412 | -0.717 | 0.162 | B3GALT1 (beta-1,3-galactosyltransferase 1) | 1 |
| -0.627 | -0.273 | -0.646 | MMRN2 (multimerin 2) | 1 |
| -0.0872 | -1.32 | -1.96 | FBXL9P (F-box and leucine rich repeat protein 9, pseudogene) | 1 |
| -0.574 | -0.191 | -0.179 | LOC441929 (retired record) | 1 |
| -0.956 | -1.2 | -1.43 | MTCH2 | 1 |
| 0.0794 | 0.263 | -0.215 | ABCB6 (ATP binding cassette subfamily B member 6 (LAN blood group)) | 1 |
| 0.277 | 1.24 | 0.353 | LTK (leukocyte receptor tyrosine kinase) | 1 |
| 0.615 | 0.158 | -0.0864 | LOC400010 (retired record) | 1 |
| -0.635 | -0.71 | -1.16 | ZNF333 (zinc finger protein 333) | 1 |
| 1.11 | 1.12 | 0.266 | PHLPP1 (PH domain and leucine rich repeat protein phosphatase 1) | 1 |
| 0.4 | 0.503 | 0.115 | AQP1 (aquaporin 1 (Colton blood group)) | 1 |
| 0.222 | 0.239 | -0.189 | GPR18 (G protein-coupled receptor 18) | 1 |
| 0.436 | 1.29 | -0.0994 | LAT2 (linker for activation of T cells family member 2) | 1 |
| 0.68 | -0.159 | 1.8 | LOC128208 (retired record) | 1 |
| 0.362 | 1.54 | 0.195 | LOC133993 (retired record) | 1 |
| 1.09 | 0.624 | -0.72 | CWC22 (CWC22 spliceosome associated protein) | 1 |
| -0.712 | -1.83 | -0.891 | MAPKBP1 (mitogen-activated protein kinase binding protein 1) | 1 |
| -1.13 | -0.744 | -1.17 | CCDC121 (coiled-coil domain containing 121) | 1 |
| -0.00312 | -0.821 | 0.385 | CREBRF (CREB3 regulatory factor) | 1 |
| 0.959 | 0.474 | 1.54 | ZC3H14 (zinc finger CCCH-type containing 14) | 1 |
| 0.587 | 1.11 | 0.173 | KRTAP4-5 (keratin associated protein 4-5) | 1 |
| -1.45 | -1.22 | -1.74 | NREP (neuronal regeneration related protein) | 1 |
| -0.443 | 0.00289 | -0.0181 | C3orf70 (chromosome 3 open reading frame 70) | 1 |
| 0.0437 | 0.603 | -0.544 | RSL24D1 (ribosomal L24 domain containing 1) | 1 |
| 1.28 | 0.225 | 0.639 | LOC83459 (retired record) | 1 |
| -0.476 | -0.436 | -1.16 | AUNIP (aurora kinase A and ninein interacting protein) | 1 |
| 0.191 | -0.109 | 0.0424 | KIAA1958 | 1 |
| -0.48 | -0.374 | -0.22 | MEIOSIN (meiosis initiator) | 1 |
| 0.0175 | -0.137 | 0.0668 | TEX9 (testis expressed 9) | 1 |
| 0.84 | 0.733 | 1.04 | FRMD5 (FERM domain containing 5) | 1 |
| -0.517 | 0.455 | 1.06 | LOC440768 (retired record) | 1 |
| 0.719 | 0.482 | 0.458 | BMPR1B (bone morphogenetic protein receptor type 1B) | 1 |
| -0.0868 | -0.542 | -0.865 | MATR3 (matrin 3) | 1 |
| -0.0118 | -0.311 | 0.373 | ATF6B (activating transcription factor 6 beta) | 1 |
| 0.657 | 0.481 | 0.791 | SLC26A1 | 1 |
| 0.354 | 0.0924 | 0.219 | SENP3 (SUMO specific peptidase 3) | 1 |
| -1.77 | -1.97 | -1.18 | FEZF2 (FEZ family zinc finger 2) | 1 |
| 0.356 | 0.988 | 1.35 | TMEM14C (transmembrane protein 14C) | 1 |
| -0.316 | -0.324 | -0.849 | CYP3A4 (cytochrome P450 family 3 subfamily A member 4) | 1 |
| 2.93 (active) | 2.3 | 2.69 | LOC389167 (retired record) | 1 |
| 0.065 | -0.196 | 0.0449 | TAF11 (TATA-box binding protein associated factor 11) | 1 |
| 0.0272 | 0.00997 | 0.093 | LOC440284 (retired record) | 1 |
| -1.75 | -1.15 | -1.66 | PDE6C (phosphodiesterase 6C) | 1 |
| 1.34 | 0.0713 | 1.19 | WDR64 (WD repeat domain 64) | 1 |
| -1.28 | -0.547 | -0.98 | IER3 (immediate early response 3) | 1 |
| 0.128 | -0.124 | -0.0749 | PTCRA (pre T cell antigen receptor alpha) | 1 |
| -0.158 | 0.774 | -0.432 | FBXO5 (F-box protein 5) | 1 |
| 0.776 | 0.458 | 0.433 | CERS6 (ceramide synthase 6) | 1 |
| 3.86 (active) | 3.92 | 3.26 | HSPA8P8 (heat shock protein family A (Hsp70) member 8 pseudogene 8) | 1 |
| -0.501 | -0.992 | -0.97 | HSPA8P8 (heat shock protein family A (Hsp70) member 8 pseudogene 8) | 2 |
| -1.2 | -1.01 | -1.08 | LOC440262 (retired record) | 1 |
| -1.59 | -0.686 | -1.04 | SEC16B (SEC16 homolog B, endoplasmic reticulum export factor) | 1 |
| -0.172 | 0.129 | 0.159 | DNAJC8 (DnaJ heat shock protein family (Hsp40) member C8) | 1 |

Hits, of those listed so far:
| robust z-score, replicate 1 | robust z-score, replicate 2 | robust z-score, replicate 3 | Gene | reagent |
| --- | --- | --- | --- | --- |
| 2.93 (active) | 2.3 | 2.69 | LOC389167 (retired record) | 1 |
| 3.86 (active) | 3.92 | 3.26 | HSPA8P8 (heat shock protein family A (Hsp70) member 8 pseudogene 8) | 1 |
